Source: US20200207837A1
No constants are given. Whether binding was seen depends on the method and setting. Some entries that bind do so weakly or less than the wild type.

By UniProt entry, the sequences of proteins in these tests, tags left out. Where a name states a change or a piece, a line headed by the entry shows the natural chain unless it says otherwise.
UniProt Q9Y5K2: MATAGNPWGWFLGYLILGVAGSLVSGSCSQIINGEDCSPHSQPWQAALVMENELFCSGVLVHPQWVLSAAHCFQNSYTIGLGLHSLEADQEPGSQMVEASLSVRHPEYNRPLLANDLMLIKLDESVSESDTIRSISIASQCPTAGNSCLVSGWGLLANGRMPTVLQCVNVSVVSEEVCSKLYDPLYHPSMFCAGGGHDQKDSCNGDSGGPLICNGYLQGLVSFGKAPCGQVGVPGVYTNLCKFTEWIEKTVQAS

Columns and labels:
[1] = target: activated KLK4 (human KLK4, C-terminal His tag, pro-KLK4 activated with thermolysin) (human) (UniProt Q9Y5K2); test: X-ray crystal structure of the complex
[2] = target: activated KLK4 (human KLK4, C-terminal His tag, pro-KLK4 activated with thermolysin) (human) (UniProt Q9Y5K2); test: X-ray crystal structure of the complex (legend of FIG. 6)

binding [1]: binds
binding [2]: binds
B1: KLK4/KLK8 inhibitory peptide K41043 (designed binder)
chain: GSGMKETAAAKFERQHMDSPDLGTDDDDKAMADIGSANSDPQFGLFSKYRTPNCRRYSIHGCNRMYAPVCGSDMSTYANECTLCMKIREGGHNIKIIRNGPCGASAAA
